Assay results reported in patent publication US20100254979A1 (CISTHERA, published 2010).
No constants are given. Whether binding was seen depends on the method and setting. A result given as binding can be weak or reduced; the word gives no strength.

Tests used:
rabbit PAI-1 (rabbit) [1] = assay: P-ELISA: biotinylated rabbit PAI-1 on Neutravidin-coated plate, HRP-conjugated secondary antibody, O.D. 450
rabbit PAI-1 (rabbit) [2] = assay: P-ELISA
rabbit PAI-1 (rabbit) [3] = assay: P-ELISA (legend of FIG. 12)

Measured: binding

B1: CT140 (humanized 33B8 anti-PAI-1 antibody, IgG4 with IgG1 hinge) (antibody, V domains shown)
VH: QVQLVQSGAEVKKPGASVKVSCKASGYTFTNYGMNWVRQAPGQGLEWMGWINTYTGEPTYTDDFKGRFTMTLDTSISTAYMELSRLRSDDTAVYYCAKDVSGFVFDYWGQGTLVTVSS
VL: DIVMTQSPDSLAVSLGERATINCKSSQSLLNIIKQKNCLAWYQQKPGQPPKLLIYWASTRESGVPDRFSGSGSGTDFTLTISSLQAEDVAVYYCQQYYSYPYTFGQGTKLEIKR
notes: The IgG4 hinge was replaced by that of IgG1; also called hP-1; humanized mAb CT140
binds: all assays above
